Experimental findings from patent publication US20210276971A1, “TRIAZAMACROCYCLE-DERIVED CHELATOR COMPOSITIONS FOR COORDINATION OF IMAGING AND THERAPY METAL IONS AND METHODS OF USING SAME” (The Research Foundation for The State University of New York, priority 2018, published 2021) are described below.

The nature of the series: Concentration-, time- and temperature-dependent radiolabeling with ^44Sc. Type of series: physicochemical. The note with it: for Time-dependent complexation, % as Sc-Ligand: 10 nmol; for Apparent Molar Activity: ^44Sc.

For the compound `O=C(O)CN1CCN(Cc2cccc(C(=O)O)n2)CCN(Cc2cccc(C(=O)O)n2)CC1` [NO1A2PIC], the “Time-dependent complexation, % as Sc-Ligand” value (“Time-dependent complexation, %” below) reads like this: (t = 10 min, 80° C.) 94.3%; (t = 10 min, RT) 38.3%; (t = 30 min, 80° C.) 97.7%; (t = 30 min, RT) 48.2%; (t = 60 min, 80° C.) 93.5%; (t = 60 min, RT) 53.6%. Moreover, the “Apparent Molar Activity” value (80° C.) is on record as 1.483 Ci/μmol and the “Apparent Molar Activity” value (Room Temp) is reported as 0.0547 Ci/μmol.
For the compound `O=C(O)c1cccc(CN2CCN(Cc3cccc(C(=O)O)n3)CCN(Cc3cccc(C(=O)O)n3)CC2)n1` [NO3PIC], the “Time-dependent complexation, %” value (t = 10 min, 80° C.) was 71.1%; the “Time-dependent complexation, %” value (t = 10 min, RT) was 44.3%; the “Time-dependent complexation, %” value (t = 30 min, 80° C.) is reported as 75.1%; the “Time-dependent complexation, %” value (t = 30 min, RT) came to 45.4%; the “Time-dependent complexation, %” value (t = 60 min, 80° C.) came out at 73.3%; the “Time-dependent complexation, %” value (t = 60 min, RT) was 43.4%. Besides, the “Apparent Molar Activity” value (80° C.) was determined as 0.0969 Ci/μmol.
With `O=C(O)CN1CCN(CC(=O)O)CCN(Cc2cccc(C(=O)O)n2)CC1` [MONOPIC, 6-{[4,7-Bis(carboxymethyl)-1,4,7-triazonan-1-yl]methyl}-2-pyridinecarboxylic acid], the “Time-dependent complexation, %” value is listed as 94.5% (t = 10 min, 80° C.); 92.1% (t = 30 min, 80° C.); 86.7% (t = 30 min, RT); 95.5% (t = 60 min, 80° C.); 84.5% (t = 60 min, RT). Moreover, the “Apparent Molar Activity” value (80° C.) was 0.599 Ci/μmol and the “Apparent Molar Activity” value (Room Temp) amounted to 0.399 Ci/μmol.
With `O=C(O)CC[C@H](NC(=O)N[C@@H](CCC(=O)NCCCCCNC(=O)CCC(C(=O)O)N1CCN(CC(=O)O)CCN(Cc2cccc(C(=O)O)n2)CC1)C(=O)O)C(=O)O` (stereo in doubt) [PICAGA, 2-{3-[(R)-1-Carboxy-4-[5-(4-carboxy-4-{7-(carboxymethyl)-4-[(6-carboxy-2-pyridyl)methyl]-1,4,7-triazonan-1-yl}butyrylamino)pentylamino]-4-oxobutyl]ureido}glutaric acid], the “Time-dependent complexation, %” value turned out to be 96.1% (t = 10 min, 80° C.); 70.8% (t = 10 min, RT); 96.7% (t = 30 min, 80° C.); 72.4% (t = 30 min, RT); 93.7% (t = 60 min, 80° C.); 78.8% (t = 60 min, RT). For the same compound, the “Apparent Molar Activity” value by setting is: (80° C.) 0.500 Ci/μmol; (Room Temp) 0.728 Ci/μmol.
Consider `O=C(O)CN1CCN(CC(=O)O)CCN(CC(=O)O)CCN(CC(=O)O)CC1` [DOTA, reference compound], for which the “Time-dependent complexation, %” value runs as follows: (t = 10 min, 80° C.) 78.9%; (t = 10 min, RT) 69.6%; (t = 30 min, 80° C.) 76.6%; (t = 30 min, RT) 69.4%; (t = 60 min, 80° C.) 74%; (t = 60 min, RT) 67%. Moreover, the “Apparent Molar Activity” value is, setting by setting: (80° C.) 3.616 Ci/μmol; (Room Temp) 1.268 Ci/μmol.
